These are yes or no findings as the source states them, for the method shown. In cells and extracts the contact can be indirect. These calls come from enrichment with a bait or labelling near it, and not all partners need be listed. Sequences can lack the tags named with a protein.
Biological target: T1, RNF128-Flag (in THP-1 cells) (human) (UniProt Q8TEB7)
T1 sequence: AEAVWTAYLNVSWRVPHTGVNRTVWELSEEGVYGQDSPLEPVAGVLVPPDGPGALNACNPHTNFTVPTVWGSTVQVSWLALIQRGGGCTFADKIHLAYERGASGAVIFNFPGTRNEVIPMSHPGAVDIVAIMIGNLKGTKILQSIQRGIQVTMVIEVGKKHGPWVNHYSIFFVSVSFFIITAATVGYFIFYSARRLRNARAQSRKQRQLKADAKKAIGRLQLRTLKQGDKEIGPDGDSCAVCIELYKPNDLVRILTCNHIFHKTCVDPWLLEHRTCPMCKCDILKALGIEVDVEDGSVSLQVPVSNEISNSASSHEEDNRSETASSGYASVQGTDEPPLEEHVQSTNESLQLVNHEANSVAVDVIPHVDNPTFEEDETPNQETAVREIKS
Assay: affinity purification with mass spectrometry; THP-1 cells transfected with empty vector or RNF128-Flag; RIPA lysates immunoprecipitated with anti-FLAG antibody and protein A/G agarose at 4 °C; LC-MS/MS

binding: binds
B1: S100A8 (endogenous, THP-1) (protein, UniProt P05109 1-93)
chain: MLTELEKALNSIIDVYHKYSLIKGNFHAVYRDDLKKLLETECPQYIRKKGADVWFKELDINTDGAVNFQEFLILVIKMGVAAHKKSHEESHKE
